Laboratory results taken from the supplement of paper PMC6411743.
± gives the standard deviation of the averaged measurements. This is a selection; strong and weak results do not stand in their true shares.

The chains behind the UniProt entries cited, without tags or fusion partners. Where a name states a change or a piece, a line headed by the entry shows the natural chain unless it says otherwise.
UniProt Q9UBL0: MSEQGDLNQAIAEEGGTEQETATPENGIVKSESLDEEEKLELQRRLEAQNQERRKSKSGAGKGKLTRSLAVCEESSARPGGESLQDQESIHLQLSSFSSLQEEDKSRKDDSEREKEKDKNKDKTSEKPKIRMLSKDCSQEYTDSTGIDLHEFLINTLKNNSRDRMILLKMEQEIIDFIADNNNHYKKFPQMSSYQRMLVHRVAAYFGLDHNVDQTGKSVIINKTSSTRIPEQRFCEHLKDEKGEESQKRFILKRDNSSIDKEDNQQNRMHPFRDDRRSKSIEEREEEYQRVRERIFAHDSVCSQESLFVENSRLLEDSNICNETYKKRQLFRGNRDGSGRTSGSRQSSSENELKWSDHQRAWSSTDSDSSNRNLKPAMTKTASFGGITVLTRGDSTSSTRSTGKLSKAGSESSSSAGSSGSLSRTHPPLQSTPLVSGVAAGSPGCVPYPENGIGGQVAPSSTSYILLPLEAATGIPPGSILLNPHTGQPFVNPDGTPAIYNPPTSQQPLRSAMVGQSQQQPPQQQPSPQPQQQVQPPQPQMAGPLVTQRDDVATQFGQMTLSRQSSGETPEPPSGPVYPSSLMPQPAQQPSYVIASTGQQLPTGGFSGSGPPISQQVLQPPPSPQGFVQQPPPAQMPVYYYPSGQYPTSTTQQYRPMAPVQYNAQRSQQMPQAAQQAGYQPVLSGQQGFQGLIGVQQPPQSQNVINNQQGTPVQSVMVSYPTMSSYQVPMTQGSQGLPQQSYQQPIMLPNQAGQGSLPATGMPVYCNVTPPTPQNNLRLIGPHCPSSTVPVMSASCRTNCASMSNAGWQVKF
UniProt Q9NSI2: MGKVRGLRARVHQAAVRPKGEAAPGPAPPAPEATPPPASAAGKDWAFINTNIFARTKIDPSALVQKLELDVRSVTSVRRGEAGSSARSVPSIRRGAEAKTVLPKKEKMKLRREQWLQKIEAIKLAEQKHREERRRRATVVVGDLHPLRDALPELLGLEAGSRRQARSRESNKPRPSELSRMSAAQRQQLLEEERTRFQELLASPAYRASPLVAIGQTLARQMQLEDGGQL
UniProt Q9NR45: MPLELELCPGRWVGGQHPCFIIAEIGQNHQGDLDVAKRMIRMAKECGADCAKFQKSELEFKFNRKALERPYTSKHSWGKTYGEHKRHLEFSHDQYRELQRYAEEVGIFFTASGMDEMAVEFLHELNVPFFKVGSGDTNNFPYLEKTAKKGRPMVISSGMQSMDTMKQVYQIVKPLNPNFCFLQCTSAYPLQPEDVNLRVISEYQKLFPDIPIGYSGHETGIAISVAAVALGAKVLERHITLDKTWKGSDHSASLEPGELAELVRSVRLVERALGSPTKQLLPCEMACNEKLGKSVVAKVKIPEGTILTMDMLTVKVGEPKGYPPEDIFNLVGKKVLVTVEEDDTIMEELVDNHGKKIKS
UniProt Q9NTM9: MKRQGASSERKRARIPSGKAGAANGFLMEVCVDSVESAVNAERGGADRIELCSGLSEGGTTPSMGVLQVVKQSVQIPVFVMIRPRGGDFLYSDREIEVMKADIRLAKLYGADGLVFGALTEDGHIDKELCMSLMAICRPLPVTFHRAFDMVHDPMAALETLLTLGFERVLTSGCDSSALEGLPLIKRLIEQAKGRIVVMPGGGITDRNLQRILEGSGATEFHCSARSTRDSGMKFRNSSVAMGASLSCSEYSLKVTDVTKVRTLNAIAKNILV
UniProt Q9NQ88: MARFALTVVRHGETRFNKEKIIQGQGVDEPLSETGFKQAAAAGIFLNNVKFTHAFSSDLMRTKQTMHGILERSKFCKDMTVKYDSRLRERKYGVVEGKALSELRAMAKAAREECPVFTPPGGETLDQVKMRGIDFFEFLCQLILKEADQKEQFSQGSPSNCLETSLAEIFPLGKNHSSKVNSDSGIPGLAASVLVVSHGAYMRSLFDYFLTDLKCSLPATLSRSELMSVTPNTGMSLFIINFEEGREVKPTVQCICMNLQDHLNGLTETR
UniProt Q9NZJ4: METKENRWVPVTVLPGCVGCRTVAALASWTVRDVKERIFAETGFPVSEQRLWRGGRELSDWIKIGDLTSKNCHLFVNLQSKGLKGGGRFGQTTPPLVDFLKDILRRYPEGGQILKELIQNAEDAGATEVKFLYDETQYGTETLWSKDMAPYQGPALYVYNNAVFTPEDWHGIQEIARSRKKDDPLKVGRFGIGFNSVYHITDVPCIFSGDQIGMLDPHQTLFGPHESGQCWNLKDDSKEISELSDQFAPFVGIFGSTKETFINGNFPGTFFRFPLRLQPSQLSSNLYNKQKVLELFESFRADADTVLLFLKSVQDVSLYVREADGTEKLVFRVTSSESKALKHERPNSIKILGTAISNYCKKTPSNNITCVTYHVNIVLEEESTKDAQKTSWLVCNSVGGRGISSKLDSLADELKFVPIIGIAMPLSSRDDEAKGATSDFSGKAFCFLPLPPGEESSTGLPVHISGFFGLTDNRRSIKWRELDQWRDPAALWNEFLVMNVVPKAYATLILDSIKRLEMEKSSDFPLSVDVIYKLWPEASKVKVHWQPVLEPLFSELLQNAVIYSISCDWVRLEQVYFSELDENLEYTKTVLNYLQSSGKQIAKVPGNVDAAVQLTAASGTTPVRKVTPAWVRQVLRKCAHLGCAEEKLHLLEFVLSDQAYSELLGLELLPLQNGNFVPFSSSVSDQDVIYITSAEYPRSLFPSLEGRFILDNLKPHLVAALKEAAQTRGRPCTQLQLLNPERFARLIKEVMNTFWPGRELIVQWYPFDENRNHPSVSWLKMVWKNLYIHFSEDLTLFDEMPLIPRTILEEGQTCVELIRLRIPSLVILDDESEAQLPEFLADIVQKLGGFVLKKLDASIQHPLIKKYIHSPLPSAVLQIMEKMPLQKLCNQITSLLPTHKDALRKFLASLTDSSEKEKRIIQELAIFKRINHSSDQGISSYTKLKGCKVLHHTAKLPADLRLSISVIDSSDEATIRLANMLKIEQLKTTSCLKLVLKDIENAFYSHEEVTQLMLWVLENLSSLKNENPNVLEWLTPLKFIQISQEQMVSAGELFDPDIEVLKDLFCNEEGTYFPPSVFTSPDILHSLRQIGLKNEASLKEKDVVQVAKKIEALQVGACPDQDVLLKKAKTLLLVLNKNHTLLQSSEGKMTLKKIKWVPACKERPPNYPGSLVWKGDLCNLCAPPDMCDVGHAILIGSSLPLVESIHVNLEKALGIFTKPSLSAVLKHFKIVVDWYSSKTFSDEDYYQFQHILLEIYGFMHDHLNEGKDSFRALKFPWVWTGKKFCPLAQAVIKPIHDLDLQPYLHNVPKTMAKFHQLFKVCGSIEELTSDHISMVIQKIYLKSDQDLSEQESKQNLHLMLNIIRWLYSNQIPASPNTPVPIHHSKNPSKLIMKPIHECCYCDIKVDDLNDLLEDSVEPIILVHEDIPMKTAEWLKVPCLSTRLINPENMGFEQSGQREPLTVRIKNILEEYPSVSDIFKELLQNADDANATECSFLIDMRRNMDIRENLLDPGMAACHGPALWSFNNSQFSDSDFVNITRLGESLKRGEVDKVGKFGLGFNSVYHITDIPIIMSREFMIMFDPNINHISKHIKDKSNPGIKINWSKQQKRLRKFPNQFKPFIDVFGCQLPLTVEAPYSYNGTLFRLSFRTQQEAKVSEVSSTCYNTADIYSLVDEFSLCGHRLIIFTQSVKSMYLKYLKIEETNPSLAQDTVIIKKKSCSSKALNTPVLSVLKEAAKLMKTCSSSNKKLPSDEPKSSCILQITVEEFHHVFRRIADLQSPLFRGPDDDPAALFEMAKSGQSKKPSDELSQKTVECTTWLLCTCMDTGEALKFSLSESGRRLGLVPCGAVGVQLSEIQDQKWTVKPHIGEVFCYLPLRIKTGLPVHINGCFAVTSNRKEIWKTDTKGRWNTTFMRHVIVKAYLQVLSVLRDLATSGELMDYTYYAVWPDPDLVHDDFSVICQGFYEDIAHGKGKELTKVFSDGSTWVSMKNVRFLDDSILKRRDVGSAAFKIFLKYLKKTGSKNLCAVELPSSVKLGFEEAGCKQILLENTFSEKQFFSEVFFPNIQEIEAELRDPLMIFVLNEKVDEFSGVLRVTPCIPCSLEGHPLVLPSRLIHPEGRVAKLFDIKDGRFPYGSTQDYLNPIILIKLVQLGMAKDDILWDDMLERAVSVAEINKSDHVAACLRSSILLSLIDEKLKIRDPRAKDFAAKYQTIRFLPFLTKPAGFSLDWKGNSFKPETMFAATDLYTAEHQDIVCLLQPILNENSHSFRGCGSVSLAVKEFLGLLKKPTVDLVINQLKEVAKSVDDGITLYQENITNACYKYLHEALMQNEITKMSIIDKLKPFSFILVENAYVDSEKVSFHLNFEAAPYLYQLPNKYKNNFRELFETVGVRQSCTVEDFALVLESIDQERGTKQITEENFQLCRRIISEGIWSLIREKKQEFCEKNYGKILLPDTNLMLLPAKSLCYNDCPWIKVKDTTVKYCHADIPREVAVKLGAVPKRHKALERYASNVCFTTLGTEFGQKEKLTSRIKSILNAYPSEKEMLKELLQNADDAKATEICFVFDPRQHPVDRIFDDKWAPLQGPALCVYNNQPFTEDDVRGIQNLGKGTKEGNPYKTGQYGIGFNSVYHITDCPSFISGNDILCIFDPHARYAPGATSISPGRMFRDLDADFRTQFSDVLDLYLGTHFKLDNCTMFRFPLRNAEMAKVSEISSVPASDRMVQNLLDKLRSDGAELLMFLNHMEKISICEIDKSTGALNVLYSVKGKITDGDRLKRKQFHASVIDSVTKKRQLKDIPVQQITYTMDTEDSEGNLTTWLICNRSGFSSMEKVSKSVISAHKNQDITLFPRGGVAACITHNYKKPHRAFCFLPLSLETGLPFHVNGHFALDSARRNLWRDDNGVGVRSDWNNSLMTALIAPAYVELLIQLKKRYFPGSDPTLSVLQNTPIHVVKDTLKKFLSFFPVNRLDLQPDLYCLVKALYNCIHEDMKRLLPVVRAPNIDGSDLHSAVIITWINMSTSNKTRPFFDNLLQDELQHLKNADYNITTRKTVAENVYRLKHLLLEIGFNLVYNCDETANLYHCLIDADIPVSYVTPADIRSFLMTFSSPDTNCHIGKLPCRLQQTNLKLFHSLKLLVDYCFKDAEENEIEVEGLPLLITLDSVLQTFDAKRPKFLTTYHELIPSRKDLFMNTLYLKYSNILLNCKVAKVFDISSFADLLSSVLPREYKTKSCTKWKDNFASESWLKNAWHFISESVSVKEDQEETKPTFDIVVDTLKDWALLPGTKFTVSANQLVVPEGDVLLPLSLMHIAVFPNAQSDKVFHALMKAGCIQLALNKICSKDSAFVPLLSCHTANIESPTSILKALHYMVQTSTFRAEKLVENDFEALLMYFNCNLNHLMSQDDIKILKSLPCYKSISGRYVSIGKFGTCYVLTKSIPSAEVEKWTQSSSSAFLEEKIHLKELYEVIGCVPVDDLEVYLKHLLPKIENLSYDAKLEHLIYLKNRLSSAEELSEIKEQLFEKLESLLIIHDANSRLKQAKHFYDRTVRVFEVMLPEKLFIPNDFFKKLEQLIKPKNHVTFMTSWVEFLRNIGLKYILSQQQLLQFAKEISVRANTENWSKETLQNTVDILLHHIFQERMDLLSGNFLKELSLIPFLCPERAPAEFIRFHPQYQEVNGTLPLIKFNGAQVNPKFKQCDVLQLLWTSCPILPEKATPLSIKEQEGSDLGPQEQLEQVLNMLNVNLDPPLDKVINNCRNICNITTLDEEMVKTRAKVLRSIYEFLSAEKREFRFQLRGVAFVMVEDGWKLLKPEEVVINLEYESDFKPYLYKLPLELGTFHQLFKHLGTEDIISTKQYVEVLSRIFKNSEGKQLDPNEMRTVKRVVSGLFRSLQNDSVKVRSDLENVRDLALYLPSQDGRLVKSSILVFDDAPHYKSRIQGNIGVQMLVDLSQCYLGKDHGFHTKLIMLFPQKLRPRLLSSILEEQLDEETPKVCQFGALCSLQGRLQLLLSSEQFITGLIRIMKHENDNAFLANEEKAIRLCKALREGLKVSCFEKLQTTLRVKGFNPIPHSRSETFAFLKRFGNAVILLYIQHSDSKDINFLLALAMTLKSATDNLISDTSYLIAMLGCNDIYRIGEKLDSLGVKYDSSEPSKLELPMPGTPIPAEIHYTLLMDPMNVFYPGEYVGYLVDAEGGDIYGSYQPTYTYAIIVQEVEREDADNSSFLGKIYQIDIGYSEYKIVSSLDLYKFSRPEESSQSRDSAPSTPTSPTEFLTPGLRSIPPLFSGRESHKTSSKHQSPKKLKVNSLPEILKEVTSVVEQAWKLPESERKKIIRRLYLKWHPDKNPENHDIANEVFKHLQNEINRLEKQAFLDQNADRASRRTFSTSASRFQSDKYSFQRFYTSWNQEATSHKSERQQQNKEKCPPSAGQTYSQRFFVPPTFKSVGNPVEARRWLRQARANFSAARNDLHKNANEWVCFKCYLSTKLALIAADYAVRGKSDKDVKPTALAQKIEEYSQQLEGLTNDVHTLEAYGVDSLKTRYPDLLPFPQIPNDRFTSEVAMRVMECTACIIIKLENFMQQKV

Compound: Nc1ncnc2c1ncn2[C@@H]1O[C@H](COP(=O)(O)OP(=O)(O)NP(=O)(O)O)[C@@H](O)[C@H]1O [adenylyl imidodiphosphate]
Assay: NP40-soluble protein abundance relative to vehicle (solubility fold change) (ratio); higher = more soluble protein in presence of AMP-PNP
Method in brief: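 Across three independent experiments, values are fold changes against the detergent-processed vehicle for each replicate, based on vsn-normalised intensities. The samples were Jurkat crude lysate treated with eight concentrations (0.1 to 10 mM) for 10 min at room temperature and then 3 min at 37 °C. Lysate was solubilised with 0.8% NP40 and benzonase, ultracentrifuged, and the supernatant analysed by TMT-labelled LC-MS/MS.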

| Target | NP40-soluble protein abundance (concentration: 1mM) | NP40-soluble protein abundance (concentration: 2mM) | NP40-soluble protein abundance (concentration: 4mM) | NP40-soluble protein abundance (concentration: 6mM) | NP40-soluble protein abundance (concentration: 8mM) | NP40-soluble protein abundance (concentration: 10mM) |
| --- | --- | --- | --- | --- | --- | --- |
| UniProt Q9UBL0 and related entries | 1.02 ± 0.0088 | 1.04 ± 0.062 | 0.988 ± 0.027 | 0.997 ± 0.013 | 0.949 ± 0.023 | 0.977 ± 0.028 |
| UniProt Q9NR31 and related entries | 0.905 ± 0.053 | 0.816 ± 0.054 | 0.835 ± 0.02 | 0.854 ± 0.041 | 0.884 ± 0.022 | 0.812 ± 0.043 |
| UniProt Q9NQH7 and related entries | 1.02 ± 0.011 | 0.964 ± 0.022 | 1.038 ± 0.0069 | 1.04 ± 0.053 | 1.07 ± 0.062 | 1.04 ± 0.034 |
| ASF1B (UniProt Q9NVP2) | 0.925 ± 0.039 | 0.902 ± 0.011 | 0.927 ± 0.019 | 0.921 ± 0.053 | 0.96 ± 0.023 | 0.918 ± 0.041 |
| UniProt Q9NSI2 and related entries | 0.9952 ± 0.0042 | 0.9892 ± 0.0017 | 0.9743 ± 0.0093 | 0.978 ± 0.028 | 0.978 ± 0.016 | 0.972 ± 0.028 |
| UniProt Q9NQS7 and related entries | 1.02 ± 0.02 | 1.05 ± 0.038 | 1.05 ± 0.065 | 1.13 ± 0.12 | 1.15 ± 0.14 | 1.19 ± 0.2 |
| UniProt Q9NQX3 and related entries | 1.01 ± 0.021 | 1.03 ± 0.014 | 0.986 ± 0.016 | 0.962 ± 0.04 | 0.945 ± 0.031 | 0.961 ± 0.034 |
| UniProt Q9P0I2 | 0.975 ± 0.028 | 0.986 ± 0.02 | 0.97 ± 0.041 | 0.985 ± 0.0057 | 0.998 ± 0.0073 | 0.996 ± 0.0084 |
| NANS (UniProt Q9NR45) | 0.981 ± 0.015 | 0.932 ± 0.043 | 0.939 ± 0.011 | 0.954 ± 0.015 | 0.948 ± 0.036 | 0.918 ± 0.027 |
| SIPA1L2 (UniProt Q9P2F8) | 0.994 ± 0.067 | 1.029 ± 0.0026 | 0.967 ± 0.029 | 0.962 ± 0.12 | 0.9293 ± 0.002 | 0.912 ± 0.064 |
| UniProt Q9P2R7 and related entries | 0.9771 ± 0.0078 | 0.943 ± 0.027 | 0.938 ± 0.011 | 0.977 ± 0.032 | 0.958 ± 0.012 | 0.969 ± 0.049 |
| SMYD2 (UniProt Q9NRG4) | 0.997 ± 0.027 | 0.974 ± 0.042 | 0.997 ± 0.05 | 0.982 ± 0.064 | 0.989 ± 0.046 | 0.931 ± 0.055 |
| UniProt Q9NUL5 and related entries | 1.07 ± 0.029 | 1.1 ± 0.13 | 1.07 ± 0.011 | 1.03 ± 0.033 | 1.07 ± 0.019 | 1.03 ± 0.026 |
| SMC4 (UniProt Q9NTJ3) | 1.01 ± 0.015 | 1.03 ± 0.046 | 0.9777 ± 0.0039 | 0.98 ± 0.032 | 0.952 ± 0.022 | 0.973 ± 0.034 |
| FBXO28 (UniProt Q9NVF7) | 1.04 ± 0.0088 | 1.09 ± 0.051 | 1.075 ± 0.0055 | 1.13 ± 0.015 | 1.15 ± 0.02 | 1.14 ± 0.073 |
| UniProt Q9P1Z2 and related entries | 1.02 ± 0.052 | 1.04 ± 0.025 | 1.07 ± 0.013 | 1.03 ± 0.044 | 0.992 ± 0.012 | 0.998 ± 0.015 |
| CUTC (UniProt Q9NTM9) | 0.986 ± 0.046 | 0.895 ± 0.076 | 0.966 ± 0.045 | 1.01 ± 0.063 | 1.03 ± 0.047 | 1.002 ± 0.0056 |
| UniProt Q9NW08 and related entries | 0.975 ± 0.02 | 0.897 ± 0.082 | 0.961 ± 0.055 | 0.932 ± 0.04 | 0.939 ± 0.051 | 0.921 ± 0.085 |
| UniProt Q9NXF7 | 0.997 ± 0.032 | 1.04 ± 0.044 | 0.9985 ± 0.005 | 0.973 ± 0.056 | 0.955 ± 0.016 | 0.978 ± 0.0026 |
| UniProt Q9P2D3 and related entries | 0.993 ± 0.011 | 0.982 ± 0.03 | 0.996 ± 0.04 | 0.993 ± 0.022 | 1 ± 0.026 | 0.968 ± 0.023 |
| UniProt Q9NWK9 and related entries | 1.05 ± 0.032 | 1.05 ± 0.035 | 1.01 ± 0.029 | 0.965 ± 0.015 | 0.958 ± 0.022 | 0.972 ± 0.025 |
| SMARCAL1 (UniProt Q9NZC9) | 0.995 ± 0.035 | 1.01 ± 0.058 | 1 ± 0.021 | 1.02 ± 0.024 | 1.01 ± 0.026 | 1.02 ± 0.02 |
| PSMC3IP (UniProt Q9P2W1) | 1.02 ± 0.025 | 1.06 ± 0.063 | 0.992 ± 0.03 | 1 ± 0.03 | 1 ± 0.021 | 0.988 ± 0.068 |
| UTP6 (UniProt Q9NYH9) | 0.951 ± 0.048 | 0.904 ± 0.012 | 0.963 ± 0.035 | 0.989 ± 0.071 | 1.04 ± 0.13 | 0.964 ± 0.016 |
| UniProt Q9P032 | 0.976 ± 0.082 | 1.03 ± 0.052 | 0.945 ± 0.09 | 0.921 ± 0.039 | 0.924 ± 0.041 | 0.89 ± 0.046 |
| UniProt Q9NQ88 | 1.03 ± 0.023 | 1.01 ± 0.03 | 1 ± 0.039 | 1.03 ± 0.034 | 1.03 ± 0.025 | 1.03 ± 0.051 |
| SACS (UniProt Q9NZJ4) | 0.964 ± 0.031 | 0.922 ± 0.053 | 0.986 ± 0.025 | 0.923 ± 0.043 | 0.95 ± 0.037 | 0.922 ± 0.061 |
| TMOD2 (UniProt Q9NZR1) | 0.97 ± 0.025 | 1.03 ± 0.038 | 0.977 ± 0.036 | 0.9653 ± 0.005 | 0.963 ± 0.029 | 0.978 ± 0.015 |
| BAZ1A (UniProt Q9NRL2) | 1.06 ± 0.031 | 1.09 ± 0.024 | 1.1 ± 0.026 | 1.142 ± 0.0034 | 1.131 ± 0.0057 | 1.174 ± 0.0098 |
| HINT3 (UniProt Q9NQE9) | 1.02 ± 0.015 | 1.01 ± 0.024 | 1.01 ± 0.03 | 0.983 ± 0.029 | 0.986 ± 0.032 | 0.962 ± 0.029 |

Two entries drawn at random from the list so far:

| Target | NP40-soluble protein abundance (concentration: 1mM) | NP40-soluble protein abundance (concentration: 2mM) | NP40-soluble protein abundance (concentration: 4mM) | NP40-soluble protein abundance (concentration: 6mM) | NP40-soluble protein abundance (concentration: 8mM) | NP40-soluble protein abundance (concentration: 10mM) |
| --- | --- | --- | --- | --- | --- | --- |
| SMC4 (UniProt Q9NTJ3) | 1.01 ± 0.015 | 1.03 ± 0.046 | 0.9777 ± 0.0039 | 0.98 ± 0.032 | 0.952 ± 0.022 | 0.973 ± 0.034 |
| UniProt Q9NQX3 and related entries | 1.01 ± 0.021 | 1.03 ± 0.014 | 0.986 ± 0.016 | 0.962 ± 0.04 | 0.945 ± 0.031 | 0.961 ± 0.034 |
